Consider 38 molecules from PubChem BioAssay AID2685 (National Center for Advancing Translational Sciences (NCATS), 2010).

Structures are written as SMILES. Values joined by “and” are separate entries in the source; they are usually repeats but may differ in a detail not shown here. Identical values can stand only once. Some of the results follow. These are further read-outs of the screen, such as a control signal, another cell line or another target. No call is given for them. Most of these compounds were active or inconclusive in the main read-out, so they are no random draw. Potencies come from curve fits of mixed quality, noted in brackets.

The nature of this experiment: qHTS Assay for Lipid Storage Modulators in Drosophila S3 Cells.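 On cell number change: cells counted by Cell Tracker Red CMTPX staining in the red channel.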 Particulars: BODIPY lipid droplet fluorescence, 18-24 h; for cell number change: measured here: cell count max response, cells fed with added oleic acid. Put shortly:
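Laser-scanning cytometry quantifies lipid droplet accumulation (500–530 nm total intensity; droplet/cell object ratio) in oleic acid-fed (400 uM added) Drosophila S3 cells treated with a concentration series. 20 uM Triacsin C defined 100% inhibition.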
On the technique in general: In qHTS, concentration-response curves come from the screen itself.

Where [1] appears, read: measured here: lipid fluorescence (Fed channel) AC50, cells fed with added oleic acid.
Where [2] appears, read: measured here: cell number channel AC50, cells fed with added oleic acid.

For `C/C=C/C(=O)OCC(=O)Nc1cccc(F)c1`, the cell number change was -20.3%. Besides, the half-maximal activity concentration (AC50) (commonly the concentration at which the activity in the assay is half-maximal) under setting [1] is 1.84 µM [falling, full curve].
Turning to `Cc1cc(OC(C)C(=O)N(Cc2ccco2)C2CCS(=O)(=O)C2)ccc1Cl` (configuration not stated), the cell number change came out at 17.3%. In addition, under setting [2], the half-maximal activity concentration (AC50) is 0.00461 µM [rising, full curve, poor fit].
Consider `Cc1[nH]c(=O)[nH]c(=O)c1S(=O)(=O)N1CCCC(C(=O)NCCc2ccc(Cl)cc2)C1` (configuration not stated), for which the cell number change amounted to 7.98%. Besides, under setting [1], the concentration at half-maximal activity (AC50) is 0.164 µM [falling, full curve, poor fit].
For the molecule `Oc1ccccc1C=NC(c1ccccc1)C(O)c1ccccc1` (configuration not stated), the cell number change was -16.5%. Besides, the half-maximal activity concentration (AC50) under setting [1] is 0.92 µM [falling, full curve, poor fit].
For the molecule `Cn1c(=O)c2c(nc(CN3CCN(C(=O)c4ccco4)CC3)n2CCCc2ccccc2)n(C)c1=O`, the cell number change came out at 37.6%. The concentration at half-maximal activity (AC50) under setting [2] is 1.03 µM [rising, partial curve]. Further, the AC50 under setting [1] was 0.517 µM [rising, full curve].
Turning to `O=C1OCC2=C1C(c1ccc(F)cc1)c1cc3c(cc1N2)OCCO3` (configuration not stated), the cell number change was -16.6%. In addition, the AC50 under setting [1] is 6.51 µM [rising, single point].
For `CCCCn1c(N)c(N(CCC(C)C)C(=O)CC2CCCC2)c(=O)[nH]c1=O`, the cell number change is -26.5%.
As for `Cc1cc(C)n2nc(C(=O)NCCc3ccccc3)nc2n1`, under setting [2], the concentration at half-maximal activity (AC50) is 2.59 µM [rising, single point].
On to `CCN(CC)S(=O)(=O)c1ccc(N2CCOCC2)c(NS(=O)(=O)c2ccc(OC)cc2)c1`, for which the AC50 under setting [1] was 25.9 µM [falling, single point].
For the molecule `CCOc1ccc(N(CC(=O)Nc2ccccc2F)S(=O)(=O)c2c(C)[nH]c(=O)[nH]c2=O)cc1`, the cell number change was -56.8%. The half-maximal activity concentration (AC50) under setting [2] is 29.1 µM [falling, single point].
As to `O=C(Cn1cc([N+](=O)[O-])cn1)NCCc1nc2ccccc2[nH]1`, the cell number change was -13.4%.
As to `Cc1ccc(CC(=O)N2CC(C)OC(C)C2)cc1` (configuration not stated), the cell number change came out at 6.37%. The AC50 under setting [1] is 1.64 µM [falling, partial curve].
Turning to `O=C(CN1C(=O)COc2ccccc21)NCc1ccccn1`, the cell number change is -23.8%. Also, the concentration at half-maximal activity (AC50) under setting [1] is 29.1 µM [falling, single point].
For the molecule `C/C=C/c1ccc(OCC(O)CN2CCCCC2CC)c(OC)c1` (configuration not stated), the cell number change is -22.9%. The concentration at half-maximal activity (AC50) under setting [1] was 29.1 µM [falling, single point].
For `CC1(C)Cc2nc3nc(SCC(=O)NCCc4ccccc4)n(-c4ccccc4)c(=O)c3cc2CO1`, the cell number change was -25.8%.
On to `Nc1ccc(CCc2nc3ccccc3o2)cc1`, for which the cell number change was determined as 19.4%. Moreover, the concentration at half-maximal activity (AC50) under setting [1] is 20.6 µM [rising, single point].
`C=Cc1c(C)c2cc3[nH]c(cc4nc(cc5nc(cc1[nH]2)C(C)=C5CCC(=O)O)C(CCC(=O)O)=C4C)c(C)c3C=C`: the cell number change was -19.1%. Further, under setting [1], the AC50 was 29.1 µM [falling, single point].
On to `COCCC(=O)N1CCC(Oc2ccc(C(=O)NCCc3cn[nH]c3)cc2)CC1`, for which the cell number change was -14.2%. Under setting [2], the concentration at half-maximal activity (AC50) was 6.51 µM [falling, single point].
As to `CC(C)(C)c1ccc(C(=O)N2CCCN(C(=O)c3ccc(C(C)(C)C)cc3)CC2)cc1`, the cell number change is 75.1%. The AC50 under setting [2] is 16.4 µM [rising, single point]. Moreover, the AC50 under setting [1] was 18.4 µM [rising, partial curve].
As to `CC1CN(S(=O)(=O)c2cccc(C(=O)N(Cc3nnc(-c4ccccc4Cl)o3)C3CC3)c2)CC(C)O1` (configuration not stated), the cell number change was -25.1%. Further, the AC50 under setting [1] is 2.91 µM [falling, partial curve, poor fit].
On to `CCC(C)[C@H](NC(=O)NCc1cccc(OC)c1)C(=O)O` (some centres not stated), for which, under setting [1], the AC50 was 0.116 µM [falling, full curve].
Consider `COC(=O)c1cc(C(=O)Cc2ccccc2)c[nH]1`, for which the cell number change was -16.1%.
As for `CCCc1nnc(NC(=O)c2cc3ccccc3o2)s1`, the cell number change is -24.4%.
In the case of `Cc1cc(C)[n+]2n1C(=O)C(c1ccccc1)=C2[O-]`, the cell number change was 31% and 54.6%. Moreover, under setting [2], the AC50 was 6.51 µM [rising, partial curve] and 20.6 µM [rising, single point]. Besides, the half-maximal activity concentration (AC50) under setting [1] is 6.51 µM [rising, partial curve, poor fit] and 29.1 µM [rising, single point].
With `CCC(C)N(C(=O)CSc1nc(-c2ccccc2)cs1)C1CCS(=O)(=O)C1` (configuration not stated), the AC50 under setting [1] is 6.51 µM [falling, single point].
Turning to `Cc1ccccc1CS(=O)(=O)c1ncc(Cl)c(C(=O)Nc2ccc(F)cc2)n1`, the concentration at half-maximal activity (AC50) was 6.51 µM [falling, single point] under setting [2] and 0.291 µM [falling, full curve] under setting [1].
For `O=C(O)C1C2C=CC3(O2)C1C(=O)N1c2ccccc2C2OCCC2C13` (configuration not stated), the cell number change was determined as 7.08%. Moreover, the AC50 under setting [1] was 1.46 µM [falling, full curve].
As for `NC(=O)c1nn(CC(=O)Nc2ccc3c(c2)OCO3)cc1[N+](=O)[O-]`, the cell number change is -4.93%.
In the case of `N#CC1=C(N)N(c2ccccc2)C(c2cccc([N+](=O)[O-])c2)C1(C#N)C#N` (configuration not stated), the cell number change was 5.61%. Further, the half-maximal activity concentration (AC50) under setting [1] was 0.366 µM [rising, partial curve, poor fit].
Regarding `O=C(NCCN1CCOCC1)c1csc2c1CCCC2`, the cell number change is -8.3%.
As to `CC(Sc1ccccc1)C(=O)N1CCN(S(=O)(=O)c2ccccc2)CC1` (configuration not stated), under setting [1], the concentration at half-maximal activity (AC50) is 0.0731 µM [falling, full curve, poor fit].
As to `O=C(c1c(F)cccc1F)N1CCN=C1SCc1ccccc1`, the AC50 by setting is: under setting [2], 0.731 µM [rising, single point]; under setting [1], 0.651 µM [rising, partial curve, poor fit].
In the case of `CCCCCCCCSc1nnc(CSc2nc3nc(C)cc(C)n3n2)o1`, the cell number change was 41.6%. For the same molecule, the AC50 under setting [2] was 1.84 µM [rising, partial curve]. Under setting [1], the AC50 is 18.4 µM [rising, single point].
Consider `O=S(=O)(c1ccc(NC(=S)NC2CCCC2)cc1)N1CCCC1`, for which the cell number change was determined as 13%.
Take `CCCn1c(SCC(=O)N2CCOCC2)nnc1-c1ccncc1`: the cell number change came out at 11.2%. Also, the half-maximal activity concentration (AC50) under setting [1] is 0.13 µM [falling, partial curve, poor fit].
For `COc1ccc(CCNC(=O)CCN2C(=O)[C@@H]3Cc4ccccc4CN3C2=O)cc1OC`, the cell number change is -12.5%.
For the molecule `O=C(COc1ccc2c(c1)OCO2)Nc1ccccc1C(F)(F)F`, the cell number change was 34.7%. For the same molecule, the half-maximal activity concentration (AC50) under setting [1] is 23.1 µM [rising, partial curve, poor fit].
For `CCCc1cc(=O)oc2cc(OCC(=O)N3CCOCC3)c(Cl)cc12`, the cell number change is 18.1%. Besides, the AC50 under setting [2] is 0.00461 µM [rising, full curve, poor fit]. The concentration at half-maximal activity (AC50) under setting [1] was 6.51 µM [rising, single point].
